# According to the supplement of paper PMC12542422:
# Where a name gives a salt, the structure may show the parent alone. ± gives the standard deviation of the averaged measurements. This is one part of the list. These are raw signals, not scaled to a control.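 Ribosome-assembly readouts in HeLa cells were imaged via ENP1 staining, with or without export block, or inducible tagged ribosomal protein reporters. Machine learning classified per-cell signal location versus solvent (DMSO) controls. Hits surpassed the DMSO false-positive mean by five standard deviations and were visually confirmed; three biological replicates.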
# Tested on: HeLa K (ENP1 immunofluorescence, no LMB)
# Assay: fraction of cells with nucleolar or nucleolar/nucleoplasmic ENP1 signal (MainHitrate); higher = more cells with nucleolar/nuclear readout signal (for ENP1 -LMB: less RNAPI inhibition; for +LMB ENP1 and RP reporters: stronger nuclear/nucleolar retention, i.e. ribosome biogenesis defect)
# Details: concentration: 1 µM; treatment time: 6 h; ENP1 -LMB; leptomycin B: none
row,Compound,fraction
1,COc1cc2c(cc1OC)CC(=O)N(CCCN(C)C[C@H]1Cc3cc(OC)c(OC)cc31)CC2 [Ivabradine HCl (Procoralan)],0.9958 ± 0.0073
2,NC(CO)(CO)CO [Trometamol],0.993 ± 0.013
3,COc1ccc(CNc2nc(N3CCC[C@H]3CO)ncc2C(=O)NCc2ncccn2)cc1Cl [Avanafil],0.993 ± 0.012
4,C[C@@H]1C(=O)O[C@H]2C[C@@]34[C@H]5C[C@@H](C(C)(C)C)[C@]36[C@@H](OC(=O)[C@@H]6O)O[C@@]4(C(=O)O5)[C@]21O [Ginkgolide A],0.989 ± 0.02
5,CCOc1nc2cccc(C(=O)O)c2n1Cc1ccc(-c2ccccc2-c2noc(=O)[nH]2)cc1 [Azilsartan (TAK-536)],0.984 ± 0.028
6,O=C(c1ccc(OCCN2CCCCC2)cc1)c1c(-c2ccc(O)cc2)sc2cc(O)ccc12 [Evista (Raloxifene Hydrochloride)],0.9983 ± 0.003
7,CN(CCOc1ccc(CC2SC(=O)NC2=O)cc1)c1ccccn1 (stereo not drawn) [Rosiglitazone (Avandia)],0.9976 ± 0.0041
8,CCC(CC)[C@H](NC(C)=O)[C@@H]1[C@H](O)[C@@H](C(=O)O)C[C@H]1NC(=N)N [Peramivir Trihydrate],0.976 ± 0.041
9,COc1c(N2CCNC(C)C2)c(F)cc2c(=O)c(C(=O)O)cn(C3CC3)c12 (stereo not drawn) [Gatifloxacin],0.9983 ± 0.0029
10,CCCCc1oc2ccc(NS(C)(=O)=O)cc2c1C(=O)c1ccc(OCCCN(CCCC)CCCC)cc1 [Dronedarone HCl (Multaq)],0.991 ± 0.016
11,Nc1cc(N2CCCCC2)nc(N)[n+]1[O-] [Minoxidil],0.9974 ± 0.0046
12,Cc1nnc(C(=O)NC(C)(C)c2nc(C(=O)NCc3ccc(F)cc3)c(O)c(=O)n2C)o1 [Raltegravir (MK-0518)],0.988 ± 0.021

# Tested on: HeLa RPS2-YFP reporter
# Assay: fraction of reporter-positive cells with nuclear (nucleolar or nucleolar/nucleoplasmic) RPS2-YFP (MainHitrate); higher = more cells with nucleolar/nuclear readout signal (for ENP1 -LMB: less RNAPI inhibition; for +LMB ENP1 and RP reporters: stronger nuclear/nucleolar retention, i.e. ribosome biogenesis defect)
# Details: concentration: 1 µM; treatment time: 6 h
row,Compound,fraction of reporter-positive cells with nuclear
1,CCS(=O)(=O)CCn1c([N+](=O)[O-])cnc1C [tinidazole],0.119 ± 0.097
2,CCc1c2c(nc3ccc(OC(=O)N4CCC(N5CCCCC5)CC4)cc13)-c1cc3c(c(=O)n1C2)COC(=O)[C@]3(O)CC [Irinotecan],0.0967 ± 0.052
3,C=C1/C(=C\C=C2/CCC[C@]3(C)[C@@H]([C@H](C)/C=C/[C@H](C)C(C)C)CC[C@@H]23)C[C@@H](O)C[C@@H]1O [Doxercalciferol (Hectorol)],0.0971 ± 0.068
4,C#C[C@]1(O)CC[C@H]2[C@@H]3CCC4=CC(=O)CC[C@@H]4[C@H]3CC[C@@]21CC [Levonorgestrel (Levonelle)],0.143 ± 0.083
5,CC1(C)[C@@H](O[C@H]2O[C@H](C(=O)O)[C@@H](O)[C@H](O)[C@H]2O[C@@H]2O[C@H](C(=O)O)[C@@H](O)[C@H](O)[C@H]2O)CC[C@]2(C)[C@H]3C(=O)C=C4[C@@H]5C[C@@](C)(C(=O)O)CC[C@]5(C)CC[C@@]4(C)[C@]3(C)CC[C@@H]12 [Ammonium Glycyrrhizinate (AMGZ)],0.126 ± 0.081
6,CC(=O)O[C@H]1CC[C@@]2(C)C(=CC[C@@H]3[C@@H]2CC[C@]2(C)C(c4cccnc4)=CC[C@@H]32)C1 [Abiraterone Acetate (CB7630)],0.137 ± 0.069
7,Cc1onc(-c2ccccc2Cl)c1C(=O)N[C@@H]1C(=O)N2[C@@H]1SC(C)(C)[C@@H]2C(=O)O [Cloxacillin sodium (Cloxacap)],0.0964 ± 0.042
8,CCCCOc1ccc(CC(=O)NO)cc1 [Bufexamac],0.114 ± 0.095
9,COc1cc2nccc(Oc3ccc(NC(=O)C4(C(=O)Nc5ccc(F)cc5)CC4)cc3)c2cc1OC [XL-184 (Cabozantinib)],0.0933 ± 0.086
10,CCCCCCCCCCCCCCCCO [1-Hexadecanol],0.137 ± 0.1
11,Nc1nc(=O)[nH]cc1F [Flucytosine (Ancobon)],0.0764 ± 0.057
12,N=C(N)NC(=O)c1nc(Cl)c(N)nc1N [Amiloride hydrochloride dihydrate],0.125 ± 0.1
13,NC(CO)C(=O)NNCc1ccc(O)c(O)c1O (stereo not drawn) [Benserazide],0.113 ± 0.056
14,CCC(=O)NCC[C@@H]1CCc2ccc3c(c21)CCO3 [Ramelteon (TAK-375)],0.109 ± 0.072
15,COc1cccc2c1C(=O)c1c(O)c3c(c(O)c1C2=O)C[C@@](O)(C(=O)CO)C[C@@H]3O[C@H]1C[C@H](N)[C@@H](O)[C@H](C)O1 [Epirubicin Hydrochloride],0.0337 ± 0.024
16,CN(C)[C@@H]1C(O)=C(C(N)=O)C(=O)[C@@]2(O)C(O)=C3C(=O)c4c(O)cccc4[C@@](C)(O)[C@H]3[C@H](O)[C@@H]12 [Oxytetracycline dihydrate],0.134 ± 0.087

# 2 neighbouring compounds already listed, quoted:
row,Compound,fraction of reporter-positive cells with nuclear
13,NC(CO)C(=O)NNCc1ccc(O)c(O)c1O (stereo not drawn) [Benserazide],0.113 ± 0.056
14,CCC(=O)NCC[C@@H]1CCc2ccc3c(c21)CCO3 [Ramelteon (TAK-375)],0.109 ± 0.072
